{"sequences": {"note": "Sequences of proteins named here, by UniProt entry; tags and fusion partners are left off. A change or cut given only in a name is not applied to a line headed by its entry.", "UniProt P18054": "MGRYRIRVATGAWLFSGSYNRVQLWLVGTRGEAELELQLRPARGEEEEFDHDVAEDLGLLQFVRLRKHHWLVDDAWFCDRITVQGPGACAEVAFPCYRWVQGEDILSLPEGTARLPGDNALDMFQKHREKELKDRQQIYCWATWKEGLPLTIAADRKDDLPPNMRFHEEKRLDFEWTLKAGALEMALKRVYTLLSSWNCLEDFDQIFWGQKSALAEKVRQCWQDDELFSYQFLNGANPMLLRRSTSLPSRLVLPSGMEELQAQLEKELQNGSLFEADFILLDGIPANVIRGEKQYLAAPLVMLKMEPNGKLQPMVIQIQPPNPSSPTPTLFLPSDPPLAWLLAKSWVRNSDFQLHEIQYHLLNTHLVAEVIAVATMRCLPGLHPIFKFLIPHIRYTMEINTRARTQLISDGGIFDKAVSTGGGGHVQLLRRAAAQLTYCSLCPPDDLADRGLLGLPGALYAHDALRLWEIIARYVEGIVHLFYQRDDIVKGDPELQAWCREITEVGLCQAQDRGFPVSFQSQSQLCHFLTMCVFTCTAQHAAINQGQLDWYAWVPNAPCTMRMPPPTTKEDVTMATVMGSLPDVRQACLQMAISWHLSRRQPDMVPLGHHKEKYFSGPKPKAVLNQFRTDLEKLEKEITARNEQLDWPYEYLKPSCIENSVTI"}, "source": "PubChem BioAssay AID1671190", "about": "(National Center for Advancing Translational Sciences (NCATS), 2021)", "note": "Values joined by “and” are separate entries in the source; they are usually repeats but may differ in a detail not shown here. Equal entries are not always repeated. Out of some 580,000 compounds screened, about 6,100 (1.1%) were called active. This list was built around the results that the source calls inconclusive (neither active nor inactive); the mix of calls is not that of the screen. Calls follow the shape of the dose curve; as a rule, active = well fitted inhibition curve with a large enough effect; inconclusive = small, poorly fitted or top-dose-only effect, or another doubt; inactive = no such curve, though single readings can be large or run the other way. Potencies of inconclusive entries are doubtful fits and often do not repeat. % is scaled to controls: 0 for no effect and ±100 for the full control effect; potency is read from the fitted curve at half-maximal effect.", "data": [{"molecular_target": "Polyunsaturated fatty acid lipoxygenase ALOX12 (Homo sapiens) (UniProt P18054)", "assay": "Primary qHTS assay for inhibitors of human arachidonate 12S-lipoxygenase (ALOX12): Round 2", "details": "purified 12hLO, xylenol orange hydroperoxide absorbance; activity change, negative = inhibition: at 108 µM (top of the series) unless noted", "procedure,_shortened": "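Purified human 12hLO at 150 nM in 25 mM Hepes, 0.01% Triton X-100, pH 7.0, preincubated 15 min at room temperature with compound. Reaction started with 40 uM arachidonic acid, 30 min at room temperature. Hydroperoxide measured by Fe-xylenol orange, 573/405 nm absorbance ratio.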", "values": [{"smiles": "COCCCn1c(C)cc(C(=O)Cn2nc(C(=O)O)c3ccccc3c2=O)c1C", "Potency": "inconclusive: 44.7 µM [inhibitor, partial curve, poor fit]"}, {"smiles": "Cc1noc(NS(=O)(=O)c2cccc3c(N(C)C)cccc23)c1C", "Potency": "inconclusive: 17.8 µM [inhibitor, single point]"}, {"smiles": "CC1=CC(C)(C)N2C(=O)C3(C(C#N)=C(N)Oc4cc(O)ccc43)c3cccc1c32", "note": "(stereo unspecified)", "Potency": "inconclusive: 126 µM [inhibitor, single point]"}, {"smiles": "O=S(=O)(Nc1ccc(-c2cn3ccccc3n2)cc1)c1ccccc1", "Potency": "inconclusive: 5.62 µM [inhibitor, partial curve, poor fit]"}, {"smiles": "Cc1ccc(S(=O)(=O)C=CS(=O)(=O)c2ccc(C)cc2)cc1", "Potency": "active: 8.91 µM"}, {"smiles": "CCc1c(C(=O)c2ccc[nH]2)oc2ccc(Br)cc12", "Potency": "inconclusive: 39.8 µM [inhibitor, partial curve]"}, {"smiles": "Cc1nn2c(C)c(C(=O)N3CCN(c4ccc(Cl)cc4)CC3)cnc2c1-c1ccc(F)cc1", "activity change, negative = inhibition": "inconclusive: -31.5% [inhibitor]"}, {"smiles": "COc1cccc(Nc2ncc3ncc(=O)n(CCC#N)c3n2)c1", "Potency": "inactive"}, {"smiles": "Cc1cccc(NC(=O)CCc2c[nH]c3ccccc23)c1", "Potency": "inactive"}, {"smiles": "NC(=O)c1ccccc1N/C=C/C(=O)c1ccccc1", "Potency": "inconclusive: 44.7 µM [inhibitor, full curve, poor fit]"}, {"smiles": "COc1cc(/C=N\\NC(=O)C2C(=O)NCC2c2ccccc2)cc(OC)c1O", "note": "(stereo unspecified)", "Potency": "inconclusive: 79.4 µM [inhibitor, partial curve, poor fit]"}, {"smiles": "NC(COCc1ccccc1)c1csc(NC(=O)Nc2cccc(C(F)(F)F)c2)n1", "note": "(stereo unspecified)", "Potency": "inconclusive: 44.7 µM [inhibitor, partial curve, poor fit]"}, {"smiles": "Cc1ccc(-c2n[nH]c(=S)n2/N=C/C=C\\c2ccccc2[N+](=O)[O-])cc1", "Potency": "inconclusive: 39.8 µM [inhibitor, partial curve, poor fit]"}, {"smiles": "O=C(/C=C/c1ccc(F)cc1)NC(=S)NC1CCCCC1", "Potency": "inactive"}, {"smiles": "COC(=O)c1c(NS(=O)(=O)c2ccccc2)csc1C", "Potency": "inconclusive: 112 µM [inhibitor, single point]"}, {"smiles": "C/C(CC(=O)c1ccccc1)=N\\NC(=O)CC#N", "Potency": "inactive"}, {"smiles": "CCOc1ccc(C2=CSC3=NCCN23)cc1Cl", "Potency": "inconclusive: 39.8 µM [inhibitor, partial curve]"}, {"smiles": "O=C(NCCCN1CCN(c2cccc(Cl)c2)CC1)c1ccc2nc(Cc3ccccc3)oc2c1", "Potency": "inconclusive: 112 µM [inhibitor, partial curve, poor fit]"}, {"smiles": "COc1ccc(OC)c(-n2c(-c3ccc(F)cc3)cn3c4c(=O)[nH]c(=O)n(C)c4nc23)c1", "Potency": "inactive"}, {"smiles": "COc1ccc(NC(=O)N[C@H]2C[C@@H](C(=O)N[C@H](Cc3c[nH]c4ccccc34)C(N)=O)N(C(=O)c3cccn3C)C2)cc1", "Potency": "inconclusive: 15.8 µM [inhibitor, full curve, poor fit]"}, {"smiles": "O=C(Oc1c(Cl)cc(Cl)c2cccnc12)c1cccs1", "Potency": "inconclusive: 39.8 µM [inhibitor, partial curve, poor fit]"}, {"smiles": "O=C(O)c1cc(F)c(F)cc1Cl", "Potency": "inconclusive: 28.2 µM [inhibitor, partial curve, poor fit]"}, {"smiles": "CC(C)n1c(SCCCn2c(=O)c3c(ncn3C)n(C)c2=O)nc2ccccc21", "Potency": "inactive"}, {"smiles": "O=C(CNC(=O)c1ccc([N+](=O)[O-])cc1)N/N=C\\c1ccc(OC(=O)c2ccccc2)cc1", "Potency": "inconclusive: 15.8 µM [inhibitor, partial curve]"}, {"smiles": "Cc1cc(F)ccc1C(O)c1ncc(-c2ccccc2)[nH]1", "note": "(stereo unspecified)", "Potency": "inconclusive: 79.4 µM [inhibitor, partial curve, poor fit]"}, {"smiles": "C=Cc1ccc(Cn2c(C)c(CNCCc3ccc(OCC)cc3)c(C(=O)O)c2C)cc1", "Potency": "inconclusive: 63.1 µM [inhibitor, partial curve, poor fit]"}, {"smiles": "Cc1cccc(N2CCN(Cc3ncc(-c4ccc(F)cc4)o3)CC2)c1C", "Potency": "inconclusive: 79.4 µM [inhibitor, partial curve, poor fit]"}, {"smiles": "Cc1cccc(C)c1OCC(=O)N(Cc1ccco1)Cc1ccco1", "Potency": "inconclusive: 50.1 µM [inhibitor, partial curve, poor fit]"}, {"smiles": "CN(Cc1ccccc1)c1nc(-c2cccnc2)nc2ccccc12", "Potency": "inactive"}, {"smiles": "CCn1cc(C(=O)N2CCN(c3cccc(Cl)c3)CC2)c(=O)c2cc(S(=O)(=O)N3CCC(C)CC3)ccc21", "Potency": "inconclusive: 39.8 µM [inhibitor, partial curve, poor fit]"}, {"smiles": "CCCN(CC1CCOC1)C(=O)Nc1ccc(C)c(F)c1", "note": "(stereo unspecified)", "Potency": "inactive"}, {"smiles": "CCOc1c(C=C(C#N)C#N)c2ccccc2n1CC", "Potency": "inconclusive: 17.8 µM [inhibitor, partial curve]"}, {"smiles": "COc1ccc(-c2noc(CNC(=O)CCc3c(C)c4ccc(O)cc4oc3=O)n2)cc1", "Potency": "inconclusive: 126 µM [inhibitor, single point]"}, {"smiles": "CC(=O)c1cc2c(cc1NC(=O)c1c(-c3ccccc3)noc1C)OCO2", "Potency": "inconclusive: 39.8 µM [inhibitor, partial curve, poor fit]"}, {"smiles": "COCCNC(=O)C1CC(c2cccc([N+](=O)[O-])c2)=NO1", "note": "(stereo unspecified)", "Potency": "inactive"}, {"smiles": "N#Cc1ccccc1S(=O)(=O)NC1CCSc2c(F)cccc21", "note": "(stereo unspecified)", "Potency": "inactive"}, {"smiles": "CC(C)(C)n1nnnc1CN1CCN(C2CCCC2)CC1", "Potency": "inactive"}, {"smiles": "CCOc1ccccc1NC(=S)NCc1ccccc1", "Potency": "inactive"}, {"smiles": "Cn1c(=O)c(C#N)c(-c2ccc(F)cc2)c2cc(C(=O)c3cc(Cl)cc(Cl)c3O)cnc21", "Potency": "inconclusive: 10 µM [inhibitor, full curve]"}, {"smiles": "COc1ccccc1-c1noc2nc(N(C)Cc3ccc(F)cc3)ccc12", "activity change, negative = inhibition": "inconclusive: -30.9% [inhibitor]"}, {"smiles": "COCCn1c(C)cc(/C=C2\\NC(=S)N(C)C2=O)c1C", "Potency": "inconclusive: 50.1 µM [inhibitor, partial curve, poor fit]"}, {"smiles": "N#CC1(NC(=O)CSC2=Nc3ccccc3CS2)CCCCC1", "Potency": "inconclusive: 50.1 µM [inhibitor, single point]"}, {"smiles": "COc1cccc(CN2CCC([C@H]3[C@@H](OC)C(=O)N3C(C)C)CC2)n1", "Potency": "inactive"}, {"smiles": "O=C(CSc1n[nH]c(-c2cc(Br)ccc2O)n1)N1CCCC1", "Potency": "inconclusive: 12.6 µM [inhibitor, partial curve, poor fit]"}, {"smiles": "O=C(Nc1nc(-c2ccc(Br)s2)cs1)C1CCN(C(=O)C2CC2)CC1", "Potency": "inconclusive: 44.7 µM [inhibitor, partial curve, poor fit]"}, {"smiles": "COc1cccc(CNC(=O)C2CCc3sc(C(=O)N(C)C)cc3C2)c1", "note": "(stereo unspecified)", "Potency": "inactive"}, {"smiles": "N#CCC(=O)N/N=C/c1cn(Cc2ccc(Cl)c(Cl)c2)c2ccccc12", "Potency": "inactive"}, {"smiles": "Cc1cc(C(=O)N[C@@H]2CCC[C@@H](C(=O)N3CCN(C)CC3)CC(=O)N(C)C2)nn1C", "Potency": "inconclusive: 2.82 µM [inhibitor, full curve, poor fit]"}, {"smiles": "Cc1ccc(S(=O)(=O)CC(=O)Nc2nnc(C(C)(C)C)s2)cc1", "Potency": "inconclusive: 44.7 µM [inhibitor, partial curve, poor fit]"}, {"smiles": "Cc1cc(C)c(S(=O)(=O)N2CC=C(c3ccccc3)CC2)c(C)c1", "Potency": "inconclusive: 100 µM [inhibitor, partial curve, poor fit]"}, {"smiles": "CC(C#N)OC(=O)C12CC3CC(CC(O)(C3)C1)C2", "note": "(stereo unspecified)", "Potency": "inconclusive: 35.5 µM [inhibitor, single point]"}, {"smiles": "O=C(Nc1ccc(-c2nc3cccnc3s2)cc1)c1cccnc1Cl", "Potency": "inactive"}, {"smiles": "COc1cc(F)ccc1-c1cc(-c2c(C)noc2C)c2cncn2c1", "Potency": "inconclusive: 25.1 µM [inhibitor, full curve, poor fit]"}, {"smiles": "CCOC(=O)N1CCC(NC(=O)CCS(=O)(=O)c2ccc3c(c2)CCN3C(=O)CC)CC1", "Potency": "inactive"}, {"smiles": "Cn1c(=O)c2[nH]c(CN3CCN(Cc4ccccc4)CC3)nc2n(C)c1=O", "Potency": "inconclusive: 3.16 µM [inhibitor, full curve, poor fit] and inconclusive: 15.8 µM [inhibitor, single point]"}, {"smiles": "CCOC(=O)N1C(=O)[C@](c2ccc(Cl)cc2)(C(C)C)N1C(=O)OCC", "Potency": "inconclusive: 112 µM [inhibitor, single point]"}, {"smiles": "Fc1ccc(Nc2ccnc(-c3ccc4c(c3)OCO4)n2)cc1", "Potency": "active: 17.8 µM"}, {"smiles": "O=C(Nc1ccc(Oc2cccnc2)cc1)C1CCN(Cc2ccccc2F)CC1", "Potency": "inconclusive: 0.251 µM [inhibitor, full curve, poor fit]"}, {"smiles": "O=C(NCc1ccncc1)c1cccc(Cn2cc(Br)cn2)c1", "Potency": "inconclusive: 31.6 µM [inhibitor, partial curve, poor fit]"}, {"smiles": "CCc1ccc(CNC(=O)c2ccc(-c3nc(CSc4ccc(C)cc4)c(C)o3)cc2)cc1", "Potency": "inconclusive: 126 µM [inhibitor, single point]"}, {"smiles": "COc1ccc(-c2cc3cc(OC)c(OC)cc3cn2)cc1", "Potency": "inconclusive: 28.2 µM [inhibitor, partial curve, poor fit]"}, {"smiles": "O=C(NCc1ccco1)c1cccnc1Cl", "Potency": "inactive"}, {"smiles": "CCOCCCNCc1ccc(F)cc1Cl", "Potency": "inconclusive: 0.355 µM [inhibitor, full curve, poor fit]"}, {"smiles": "CCc1ccc2nc(N(CCN(C)C)C(=O)c3ccc4ncsc4c3)sc2c1", "Potency": "active: 35.5 µM"}, {"smiles": "CCC[C@H]1[C@@H](NS(=O)(=O)c2ccc(Br)cc2)CC[C@@]23CCCN2C(=O)CCC[C@@H]13", "Potency": "inconclusive: 112 µM [inhibitor, single point]"}, {"smiles": "COc1ccc(-c2cc(=O)c3c(O)c(OC)c(OC)c(OC)c3o2)cc1", "Potency": "inactive"}]}]}
